Patent US10125098B2, “Therapeutic compounds and methods of use thereof” (GENENTECH, INC., priority 2014, dated 2018)
Structures were worked out from names or drawings and are uncertain.

Protein sequences, listed by entry. Tags and fused reporters are not part of them. Residues count along the entry.
UniProt Q15858, 1-1977 isoform 3: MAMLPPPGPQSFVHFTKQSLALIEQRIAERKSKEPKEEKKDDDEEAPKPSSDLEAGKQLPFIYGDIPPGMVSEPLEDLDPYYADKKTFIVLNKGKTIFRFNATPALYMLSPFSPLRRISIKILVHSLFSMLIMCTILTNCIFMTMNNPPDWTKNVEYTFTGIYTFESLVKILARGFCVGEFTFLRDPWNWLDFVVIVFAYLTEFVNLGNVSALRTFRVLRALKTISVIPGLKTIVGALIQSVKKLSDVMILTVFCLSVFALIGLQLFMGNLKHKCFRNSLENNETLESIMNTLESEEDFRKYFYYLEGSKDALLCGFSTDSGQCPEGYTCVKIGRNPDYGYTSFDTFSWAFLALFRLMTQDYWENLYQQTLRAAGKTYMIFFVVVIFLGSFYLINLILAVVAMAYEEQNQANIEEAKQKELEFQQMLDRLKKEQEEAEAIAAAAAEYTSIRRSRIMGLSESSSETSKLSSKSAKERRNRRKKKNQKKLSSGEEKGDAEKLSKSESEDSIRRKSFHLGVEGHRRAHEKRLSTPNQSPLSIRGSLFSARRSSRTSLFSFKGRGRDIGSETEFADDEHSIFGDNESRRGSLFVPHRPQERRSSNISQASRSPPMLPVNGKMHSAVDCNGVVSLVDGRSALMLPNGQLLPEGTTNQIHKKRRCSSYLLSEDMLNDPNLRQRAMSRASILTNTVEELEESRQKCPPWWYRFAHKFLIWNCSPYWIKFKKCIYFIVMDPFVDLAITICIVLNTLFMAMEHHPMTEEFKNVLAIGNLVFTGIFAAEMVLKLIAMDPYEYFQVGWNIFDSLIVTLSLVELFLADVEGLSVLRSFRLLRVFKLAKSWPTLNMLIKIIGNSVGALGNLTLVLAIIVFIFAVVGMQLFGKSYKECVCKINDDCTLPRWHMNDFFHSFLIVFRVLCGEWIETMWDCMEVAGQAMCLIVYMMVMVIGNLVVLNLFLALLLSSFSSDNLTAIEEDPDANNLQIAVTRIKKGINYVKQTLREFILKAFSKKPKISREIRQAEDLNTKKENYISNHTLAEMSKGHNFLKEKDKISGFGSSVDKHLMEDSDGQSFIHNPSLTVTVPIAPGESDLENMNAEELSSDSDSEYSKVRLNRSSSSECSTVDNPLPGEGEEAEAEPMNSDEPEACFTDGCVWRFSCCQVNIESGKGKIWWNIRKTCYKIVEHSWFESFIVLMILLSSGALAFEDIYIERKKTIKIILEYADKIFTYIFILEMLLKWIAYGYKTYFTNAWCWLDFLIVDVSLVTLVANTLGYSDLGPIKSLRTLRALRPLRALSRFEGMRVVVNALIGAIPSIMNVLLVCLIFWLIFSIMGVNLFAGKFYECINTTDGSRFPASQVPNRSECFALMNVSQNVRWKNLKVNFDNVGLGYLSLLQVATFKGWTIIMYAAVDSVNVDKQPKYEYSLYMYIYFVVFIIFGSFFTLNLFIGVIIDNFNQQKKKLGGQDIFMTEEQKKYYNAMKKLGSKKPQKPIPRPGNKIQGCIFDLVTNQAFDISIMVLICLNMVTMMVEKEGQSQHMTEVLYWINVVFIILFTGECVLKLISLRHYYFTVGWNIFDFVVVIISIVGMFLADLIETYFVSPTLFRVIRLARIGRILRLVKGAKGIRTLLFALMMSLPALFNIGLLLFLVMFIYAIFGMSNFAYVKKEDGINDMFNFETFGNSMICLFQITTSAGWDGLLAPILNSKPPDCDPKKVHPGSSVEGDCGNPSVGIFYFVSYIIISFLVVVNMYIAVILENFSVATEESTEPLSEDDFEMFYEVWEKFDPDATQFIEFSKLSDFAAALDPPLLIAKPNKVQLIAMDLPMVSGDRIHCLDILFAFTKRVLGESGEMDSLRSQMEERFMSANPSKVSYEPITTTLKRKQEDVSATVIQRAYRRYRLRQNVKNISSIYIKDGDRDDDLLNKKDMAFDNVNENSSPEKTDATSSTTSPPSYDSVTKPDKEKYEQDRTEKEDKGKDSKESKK
UniProt Q14524, whole entry: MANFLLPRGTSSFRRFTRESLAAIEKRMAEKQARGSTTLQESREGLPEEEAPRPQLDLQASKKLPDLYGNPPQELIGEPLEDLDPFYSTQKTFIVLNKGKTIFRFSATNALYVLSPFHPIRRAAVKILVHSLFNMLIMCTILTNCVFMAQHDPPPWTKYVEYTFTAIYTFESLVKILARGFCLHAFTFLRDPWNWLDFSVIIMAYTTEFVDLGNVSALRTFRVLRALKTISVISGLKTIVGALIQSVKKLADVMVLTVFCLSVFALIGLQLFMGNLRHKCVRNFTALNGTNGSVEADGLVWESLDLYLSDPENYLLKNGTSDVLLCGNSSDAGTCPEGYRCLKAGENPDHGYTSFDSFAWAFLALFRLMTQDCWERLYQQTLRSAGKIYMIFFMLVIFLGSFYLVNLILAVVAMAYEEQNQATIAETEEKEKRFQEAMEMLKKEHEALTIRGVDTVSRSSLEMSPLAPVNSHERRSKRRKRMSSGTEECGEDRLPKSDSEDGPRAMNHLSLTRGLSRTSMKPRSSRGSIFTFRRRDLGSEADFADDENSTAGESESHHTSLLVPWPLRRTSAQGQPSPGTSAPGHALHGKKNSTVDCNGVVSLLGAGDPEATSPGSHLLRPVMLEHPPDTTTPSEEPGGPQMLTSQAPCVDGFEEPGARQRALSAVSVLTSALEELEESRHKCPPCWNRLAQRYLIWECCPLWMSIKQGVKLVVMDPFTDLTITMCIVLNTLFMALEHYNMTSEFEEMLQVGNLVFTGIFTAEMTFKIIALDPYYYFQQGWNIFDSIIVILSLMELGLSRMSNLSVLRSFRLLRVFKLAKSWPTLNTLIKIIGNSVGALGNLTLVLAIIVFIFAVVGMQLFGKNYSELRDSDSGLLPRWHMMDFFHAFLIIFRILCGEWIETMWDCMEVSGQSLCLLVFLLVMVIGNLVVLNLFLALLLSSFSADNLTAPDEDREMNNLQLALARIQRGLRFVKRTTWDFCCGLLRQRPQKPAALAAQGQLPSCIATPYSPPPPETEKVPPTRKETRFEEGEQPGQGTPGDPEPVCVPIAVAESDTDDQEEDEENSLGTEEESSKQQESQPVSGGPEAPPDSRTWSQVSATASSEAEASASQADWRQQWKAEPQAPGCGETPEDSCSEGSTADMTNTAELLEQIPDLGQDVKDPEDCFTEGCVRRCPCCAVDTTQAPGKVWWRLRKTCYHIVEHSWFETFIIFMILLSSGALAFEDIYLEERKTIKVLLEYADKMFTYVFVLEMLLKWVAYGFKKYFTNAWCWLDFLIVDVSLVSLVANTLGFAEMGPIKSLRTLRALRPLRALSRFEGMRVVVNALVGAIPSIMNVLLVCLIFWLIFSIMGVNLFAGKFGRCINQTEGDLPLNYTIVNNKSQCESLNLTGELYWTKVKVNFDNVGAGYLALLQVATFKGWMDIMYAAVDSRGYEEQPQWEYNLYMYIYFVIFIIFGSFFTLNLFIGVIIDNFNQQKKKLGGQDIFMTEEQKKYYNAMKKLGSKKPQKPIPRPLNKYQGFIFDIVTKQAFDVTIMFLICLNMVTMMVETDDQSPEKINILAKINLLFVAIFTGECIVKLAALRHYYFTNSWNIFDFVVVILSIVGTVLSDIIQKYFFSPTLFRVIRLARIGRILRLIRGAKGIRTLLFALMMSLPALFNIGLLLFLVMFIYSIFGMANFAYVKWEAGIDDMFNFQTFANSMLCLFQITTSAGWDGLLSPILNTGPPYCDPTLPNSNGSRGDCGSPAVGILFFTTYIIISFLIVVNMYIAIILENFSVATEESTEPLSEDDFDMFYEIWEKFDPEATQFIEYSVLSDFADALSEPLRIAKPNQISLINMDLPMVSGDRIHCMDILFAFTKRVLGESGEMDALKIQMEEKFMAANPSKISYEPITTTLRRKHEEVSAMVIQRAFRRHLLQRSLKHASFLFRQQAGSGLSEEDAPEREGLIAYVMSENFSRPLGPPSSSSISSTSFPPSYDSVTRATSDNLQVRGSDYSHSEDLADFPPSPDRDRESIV
UniProt Q07699, 19-218 partner limits assumed: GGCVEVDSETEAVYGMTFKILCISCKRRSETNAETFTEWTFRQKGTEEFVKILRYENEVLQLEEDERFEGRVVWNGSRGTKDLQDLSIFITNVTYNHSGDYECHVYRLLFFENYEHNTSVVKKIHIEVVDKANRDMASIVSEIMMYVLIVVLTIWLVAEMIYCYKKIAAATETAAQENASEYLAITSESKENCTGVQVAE

Columns and labels:
hNav1.7 = hNav1.7 (Homo sapiens, UniProt Q15858); test: Tritiated compound binding (LBA) to membranes from cells expressing hNav1.7 and the β1 subunit, competitive binding; details: read-out: LBA; competitive binding vs 100 pM [3H]compound, 18 h, room temperature, membranes with hNav1.7 and β1 subunit
human NaV1.7 = human NaV1.7 (Homo sapiens, UniProt Q15858); test: Patch voltage clamp electrophysiology assay (EP), NaV1.7; format: cell-based; details: read-out: Nav1.7; HEK-293 cells stably expressing NaV1.7 with β1 subunit; whole-cell patch clamp, membrane potential −60 mV (inactivated state)
human NaV1.5 = human NaV1.5 (Homo sapiens, UniProt Q14524); test: Patch voltage clamp electrophysiology assay (EP), NaV1.5; details: read-out: Nav1.5; HEK-293 cells stably expressing NaV1.5 with β1 subunit; whole-cell patch clamp, membrane potential −60 mV (inactivated state)

## O=C(O)[C@@H]1C2CC(C2)N1C(=O)c1cc(C2CC2)c(OCC23CC4CC(CC(C4)C2)C3)cc1F
hNav1.7
  IC50: 190 nM
Human NaV1.7
  IC50: 1600 nM
Human NaV1.5
  IC50: 11000 nM

## O=C(O)[C@@H]1C[C@@H](F)CN1C(=O)c1cc(C2CC2)c(OCC2CCN(C(c3cc(Cl)cc(Cl)c3)C(F)(F)F)CC2)cc1F (some centres unmarked)
hNav1.7
  IC50: 16 nM
Human NaV1.7
  IC50: 310 nM
Human NaV1.5
  IC50: 11000 nM

## C[C@H]1OCN(C(=O)c2cc(C3CC3)c(COc3cc(Cl)cc(Cl)c3)cc2F)[C@@H]1C(=O)O
hNav1.7
  IC50: 9.2 nM
Human NaV1.7
  IC50: 20 nM
